These are yes or no findings as the source states them, for the method shown. Binding seen in cells or lysates may run through a third protein. Here binding means that the protein was enriched with, or labelled near, the bait; the list need not be complete. For part of these data: Sequences can lack the tags named with a protein. Values belong to the binder of their own block, whether it stands above or below them.
How the values were obtained:
[1] = molecular target: T1, BirA*-Roquin-1 (UniProt Q4VGL6); experiment: proximity labelling
T1 sequence: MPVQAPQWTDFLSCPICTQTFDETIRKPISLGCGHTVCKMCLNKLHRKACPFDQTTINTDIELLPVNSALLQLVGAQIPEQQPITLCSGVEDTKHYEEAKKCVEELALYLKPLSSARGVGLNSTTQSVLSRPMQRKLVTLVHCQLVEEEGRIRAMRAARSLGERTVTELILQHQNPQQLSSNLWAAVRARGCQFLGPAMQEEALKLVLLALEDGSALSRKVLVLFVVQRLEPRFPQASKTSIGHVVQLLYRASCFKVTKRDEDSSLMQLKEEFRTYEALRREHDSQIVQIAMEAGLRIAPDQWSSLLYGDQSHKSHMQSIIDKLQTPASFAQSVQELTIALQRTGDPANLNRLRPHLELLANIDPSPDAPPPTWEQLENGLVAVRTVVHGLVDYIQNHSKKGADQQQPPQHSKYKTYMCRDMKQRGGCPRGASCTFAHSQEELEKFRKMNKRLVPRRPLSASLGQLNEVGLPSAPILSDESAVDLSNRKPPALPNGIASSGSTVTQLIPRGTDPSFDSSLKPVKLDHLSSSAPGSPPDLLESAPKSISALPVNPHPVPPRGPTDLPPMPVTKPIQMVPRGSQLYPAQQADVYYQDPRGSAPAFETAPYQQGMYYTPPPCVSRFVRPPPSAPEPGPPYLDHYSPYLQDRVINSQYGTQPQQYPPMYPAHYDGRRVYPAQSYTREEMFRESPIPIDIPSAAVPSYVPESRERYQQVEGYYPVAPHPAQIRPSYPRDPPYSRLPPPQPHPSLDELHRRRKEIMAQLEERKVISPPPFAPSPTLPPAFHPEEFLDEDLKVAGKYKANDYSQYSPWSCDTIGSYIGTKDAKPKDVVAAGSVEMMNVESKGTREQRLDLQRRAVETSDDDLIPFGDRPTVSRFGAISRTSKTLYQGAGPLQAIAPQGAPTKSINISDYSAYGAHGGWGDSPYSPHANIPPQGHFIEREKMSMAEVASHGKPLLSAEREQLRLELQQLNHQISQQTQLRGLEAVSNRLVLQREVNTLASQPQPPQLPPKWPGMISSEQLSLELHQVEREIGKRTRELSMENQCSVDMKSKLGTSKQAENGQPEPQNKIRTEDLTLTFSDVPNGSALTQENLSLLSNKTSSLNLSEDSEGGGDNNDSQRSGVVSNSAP

[2] = molecular target: T2, Myc-BirA*-Roquin-1 (UniProt Q4VGL6); experiment: proximity labelling
T2 sequence: T1 sequence

binding [1]: binds
binding [2]: binds
B1: Nufip2 (protein, UniProt Q5F2E7 1-692)
chain: MEEKPGQPQPQHHHSHHHPHHHPQQQQQQQSHHHHHYYFYNHSHNHHHHHHHQQPHQYLQHGAEGSPKAQPKPLKHEQKHTLQQHQETPKKKTGYGEINGNAGEREISLKSLSSDEATNPISRVLNGNQQVVETSLKQTVKTSTFGKAGIKTKNFIQKNSMDKKNGKSYENKSGETQAVDKTDTIAIPNGVITSSSGYITNGYMSKGADNDGSGSESGYTTPKKRKARRNSAKGCENLNLVQDKIMQETSVPALKQGLETLKPDYSEQKGMRVDGSKPIWKYETGPGGTSRGKPAMGDVLRKSSDIKPGLSSKKFDDRPKGKHASAAASKEDSWTLFKPPPVFPVDNSSAKIVPKISYASKVKENLNKTVQNSSVSPSSSSSSSSTGETQTQSSSRLSQVPMSALKSVTSASFSNGPVLAGTDGSVYPSGGQPLLTTAANTLTPISTGTDSVLQDMSLASAAVEQIKSSLFIYPSNMQTVLLSAQVDLPSQTDQQNLGDIFQNQWGLSFINEPSAGPETVIGKSSDHKVMEVTFQGEYPATLVSQGAEIIPSGTEHPVFPKAYELEKRTSPQVLGHILKPGTTESGALSLDPSHIGDLQKADTSSQGALVFLSKDYEIENQNPLASPTNTLLGSAKEQRYQRGLERNDSWGSFDLRAAIVYHTKEMESIWNLQKQDPKRIITYNEAMDSPDQ

binding [1]: binds
B2: Roquin-2 (protein, UniProt P0C090 1-1187)
chain: MPVQAAQWTEFLSCPICYNEFDENVHKPISLGCSHTVCKTCLNKLHRKACPFDQTAINTDIDVLPVNFALLQLVGAQVPDHQSIKLSNLGENKHYEVAKKCVEDLALYLKPLSGGKGVASLNQSALSRPMQRKLVTLVNCQLVEEEGRVRAMRAARSLGERTVTELILQHQNPQQLSANLWAAVRARGCQFLGPAMQEEALKLVLLALEDGSALSRKVLVLFVVQRLEPRFPQASKTSIGHVVQLLYRASCFKVTKRDEDSSLMQLKEEFRSYEALRREHDAQIVHIAMEAGLRISPEQWSSLLYGDLAHKSHMQSIIDKLQSPESFAKSVQELTIVLQRTGDPANLNRLRPHLELLANIDPNPDAVSPTWEQLENAMVAVKTVVHGLVDFIQNYSRKGHETPQPQPNSKYKTSMCRDLRQQGGCPRGTNCTFAHSQEELEKYRLRNKKMSATVRTFPLLNKVGVNSTVTTTAGNVISVIGSTETTGKIVASTNGISNTESSVSQLIPRGTDSAVRTLETVKKVGKVGTNAQNAGPSAESVSENKIGSPPKTPVSNAAATSAGPSNFGTELNSLPPKSSPFLTRVPVYPQHSESIQYFQDPRTQIPFEVPQYPQTGYYPPPPTVPAGVTPCVPRFVRSSNVPESSLPPASMPYADHYSTFSPRDRMNSSPYQPPPPQQYGPVPPVPSGMYAPVYDSRRIWRPAMYQRDDIIRSNSLPPMDVMHSSVYQTSLRERYNSLDGYYSVACQPPNDPRTTVPLPREPCGHLKTSCEEQLRRKPDQWTQYHTQKTPVSSTLPVATQSPTPPSPLFSVDFRSDFSESVSGAKFEEDHLSHYSPWSCGTIGSCINAIDSEPKDVIANSNAVLMDLDSGDVKRRVHLFEAQRRTKEEDPIIPFSDGPIISKWGAISRSSRTGYHTTDPVQATASQGSATKPISVSDYVPYVNAVDSRWSSYGNDATSSAHYIERDRFIVTDLSGHRKHSSTGDLLSIELQQAKSNSLLLQREANALAMQQKWNSLDEGRHLTLNLLSKEIELRNGENDYTEDTVDTKPDRDIELELSALDTDEPDGQSEQIEEILDIQLGISSQNDQLLNGTAVENGHPAQQHQKDPGKPKRQSLGEDHVILEEQKPILPVTSCFSQPRPMSISSASCLPITTSVSVGNLILKTHVMSEDKNDFLKPIANGKMVNS

— paper doi:10.1101/2020.08.20.259234
